Test results as given in PubChem BioAssay AID720519 (National Center for Advancing Translational Sciences (NCATS), 2013).
Inconclusive means that the source gave no clear call. Such entries were picked first, then a sample of the others. Where the call is inconclusive, the potency comes from a doubtful curve fit. Calls of active or inactive are those of the source. The call rests on the fitted dose curve; in most records, active means well fitted activation curve with a large enough effect; inconclusive means small, poorly fitted or top-dose-only effect; inactive means flat fitted curve, though single readings scatter.

Test: qHTS for Inhibitors of Cell Surface uPA Generation: Confirmatory Assay for Cherry-picked Compounds
Details: cell surface uPA activity generation, qHTS confirmation; series mostly up to 115 µM
Outline: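 RAW 264.7 cells at 4000/well, incubated overnight, then treated with compounds. After 24 h at 37 C, viability was read by ATPlite luminescence. An increase in signal indicates blocked uPA-dependent LF entry.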
Potency means the concentration at half of the fitted maximal effect.

| Structure (SMILES) | Potency |
| --- | --- |
| CCCn1c(N)c(C(=O)CSc2nnc(C3CC3)n2Cc2ccccc2)c(=O)[nH]c1=O | inconclusive: 18.5 µM [activator, full curve] |
| COCCNC(=O)C(c1c[nH]c2ccccc12)N(C(=O)c1snc(C(N)=O)c1N)c1cccc(OC)c1 (centres undefined) | inactive |
| OC(COc1ccc(Br)cc1)CN1CCN(c2ccccc2)CC1 (centres undefined) | inactive |
| CN(C)c1cccc(C(=O)N(C)C2CCCN(Cc3ccccc3F)C2)c1 (centres undefined) | active: 20.7 µM |
| CCOC(=O)c1c(NC(=O)COc2ccccc2C#N)sc2c1CC(C)(C)NC2(C)C | inconclusive: 2.07 µM [activator, full curve, poor fit] |
| CC(=O)c1cnc2nc(SCc3cccc(C)c3)nn2c1C | inactive |
| CCN(CC(=O)NCc1ccc(F)cc1)CC(=O)Nc1ccccc1-c1ccccc1 | inconclusive: 18.5 µM [activator, full curve] |
| O=C1[C@H]2[C@@H](c3ccc(F)cc3)N3C(=O)N(c4ccccc4)C(=O)[C@@]3(Cc3ccc(Cl)cc3)[C@H]2C(=O)N1C1CCCCC1 | inconclusive: 2.61 µM [activator, full curve] |
| C=CS(=O)(=O)c1ccc(Oc2ccc(S(=O)(=O)C=C)cc2)cc1 | active: 58.5 µM |
| Cc1nc2ncccn2c1-c1csc(Nc2ccc(S(N)(=O)=O)cc2)n1 | inactive |
| CC(C)N1CCc2c(sc(NC(=O)Cc3ccccc3)c2C(N)=O)C1 | inactive |
| Cc1c([N+](=O)[O-])c2ccc(O)cc2n1-c1ccccc1 | inconclusive: 13.1 µM [activator, full curve] |
| O=C(/C=C/c1ccccc1)CCN1CCOCC1 | inconclusive: 58.5 µM [activator, single point] |
| O=C(/C=C/c1cccc(F)c1)Nc1cc(S(=O)(=O)N2CCOCC2)ccc1Cl | inactive |
